Data as given in paper doi:10.1101/2025.11.01.685922.

Chains of the proteins cited; added tags and fusions are not shown. Residues count along the entry.
UniProt Q9DBC7: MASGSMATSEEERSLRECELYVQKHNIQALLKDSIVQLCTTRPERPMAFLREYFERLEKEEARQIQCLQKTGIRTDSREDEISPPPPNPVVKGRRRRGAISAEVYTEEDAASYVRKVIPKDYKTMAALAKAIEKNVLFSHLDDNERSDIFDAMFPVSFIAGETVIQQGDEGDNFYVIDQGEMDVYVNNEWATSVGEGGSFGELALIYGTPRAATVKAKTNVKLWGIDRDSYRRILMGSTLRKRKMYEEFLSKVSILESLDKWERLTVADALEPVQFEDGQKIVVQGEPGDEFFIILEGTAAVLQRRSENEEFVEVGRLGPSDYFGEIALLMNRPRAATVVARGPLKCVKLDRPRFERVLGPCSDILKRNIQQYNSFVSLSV
UniProt P70302, residues 23-685: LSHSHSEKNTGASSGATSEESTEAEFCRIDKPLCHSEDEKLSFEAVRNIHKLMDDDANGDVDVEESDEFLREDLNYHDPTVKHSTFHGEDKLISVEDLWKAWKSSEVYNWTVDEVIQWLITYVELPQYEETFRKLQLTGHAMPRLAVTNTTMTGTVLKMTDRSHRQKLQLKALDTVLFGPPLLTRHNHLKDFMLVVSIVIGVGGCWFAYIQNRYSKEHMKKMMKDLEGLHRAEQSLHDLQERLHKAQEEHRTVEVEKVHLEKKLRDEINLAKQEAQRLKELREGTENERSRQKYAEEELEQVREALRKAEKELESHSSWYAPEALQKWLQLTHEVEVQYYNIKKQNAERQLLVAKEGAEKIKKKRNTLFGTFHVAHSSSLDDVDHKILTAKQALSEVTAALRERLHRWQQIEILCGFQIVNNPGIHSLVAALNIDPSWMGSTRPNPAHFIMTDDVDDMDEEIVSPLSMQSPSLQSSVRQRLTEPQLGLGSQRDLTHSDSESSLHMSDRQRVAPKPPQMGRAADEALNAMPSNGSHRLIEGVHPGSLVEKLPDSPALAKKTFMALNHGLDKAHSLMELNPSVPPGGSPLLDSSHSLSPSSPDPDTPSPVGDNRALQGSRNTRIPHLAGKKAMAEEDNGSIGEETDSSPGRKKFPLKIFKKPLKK
UniProt P70336: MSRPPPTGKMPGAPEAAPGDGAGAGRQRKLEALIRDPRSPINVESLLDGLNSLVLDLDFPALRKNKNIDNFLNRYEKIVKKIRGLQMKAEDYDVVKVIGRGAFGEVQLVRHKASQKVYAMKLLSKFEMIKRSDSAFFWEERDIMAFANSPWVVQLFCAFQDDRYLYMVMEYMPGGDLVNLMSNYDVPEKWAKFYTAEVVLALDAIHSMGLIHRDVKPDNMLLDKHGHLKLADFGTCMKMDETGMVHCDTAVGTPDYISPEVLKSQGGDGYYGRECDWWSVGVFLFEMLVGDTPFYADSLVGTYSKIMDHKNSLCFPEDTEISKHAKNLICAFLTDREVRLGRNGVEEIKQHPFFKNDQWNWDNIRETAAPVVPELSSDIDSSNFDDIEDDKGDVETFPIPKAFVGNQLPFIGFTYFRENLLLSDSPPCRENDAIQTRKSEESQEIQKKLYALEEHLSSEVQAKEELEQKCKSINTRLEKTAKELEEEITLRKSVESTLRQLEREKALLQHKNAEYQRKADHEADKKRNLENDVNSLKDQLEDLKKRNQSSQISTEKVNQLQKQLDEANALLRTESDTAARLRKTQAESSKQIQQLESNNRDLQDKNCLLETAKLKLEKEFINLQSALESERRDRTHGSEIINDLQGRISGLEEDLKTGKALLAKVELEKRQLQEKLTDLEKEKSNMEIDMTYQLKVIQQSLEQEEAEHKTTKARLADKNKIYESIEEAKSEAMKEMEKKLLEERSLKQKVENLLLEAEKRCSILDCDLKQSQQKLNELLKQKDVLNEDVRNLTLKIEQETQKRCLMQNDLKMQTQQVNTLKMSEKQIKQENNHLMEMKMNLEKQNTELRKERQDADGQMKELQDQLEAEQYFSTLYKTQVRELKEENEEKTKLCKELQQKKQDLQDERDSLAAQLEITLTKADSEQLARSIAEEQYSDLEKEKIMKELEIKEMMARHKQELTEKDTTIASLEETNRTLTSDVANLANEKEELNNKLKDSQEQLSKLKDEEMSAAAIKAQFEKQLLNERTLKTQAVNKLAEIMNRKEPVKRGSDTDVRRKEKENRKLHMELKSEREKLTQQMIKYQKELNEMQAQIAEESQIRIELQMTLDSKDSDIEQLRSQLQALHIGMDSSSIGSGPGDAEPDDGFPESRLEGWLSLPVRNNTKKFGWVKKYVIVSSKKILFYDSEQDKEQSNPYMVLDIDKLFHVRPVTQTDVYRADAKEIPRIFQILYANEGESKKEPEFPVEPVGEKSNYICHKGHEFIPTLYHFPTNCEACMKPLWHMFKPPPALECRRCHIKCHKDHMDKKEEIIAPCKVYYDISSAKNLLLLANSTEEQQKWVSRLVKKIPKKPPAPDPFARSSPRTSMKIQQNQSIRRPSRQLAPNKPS

Legend:
Assay in all cases: proximity labelling
[1] = target: T1, FAM134B fused to TurboID-V5 (FAM134B-TID-V5 and TID-V5-FAM134B) (mouse) (UniProt Q8VE91)
T1 sequence: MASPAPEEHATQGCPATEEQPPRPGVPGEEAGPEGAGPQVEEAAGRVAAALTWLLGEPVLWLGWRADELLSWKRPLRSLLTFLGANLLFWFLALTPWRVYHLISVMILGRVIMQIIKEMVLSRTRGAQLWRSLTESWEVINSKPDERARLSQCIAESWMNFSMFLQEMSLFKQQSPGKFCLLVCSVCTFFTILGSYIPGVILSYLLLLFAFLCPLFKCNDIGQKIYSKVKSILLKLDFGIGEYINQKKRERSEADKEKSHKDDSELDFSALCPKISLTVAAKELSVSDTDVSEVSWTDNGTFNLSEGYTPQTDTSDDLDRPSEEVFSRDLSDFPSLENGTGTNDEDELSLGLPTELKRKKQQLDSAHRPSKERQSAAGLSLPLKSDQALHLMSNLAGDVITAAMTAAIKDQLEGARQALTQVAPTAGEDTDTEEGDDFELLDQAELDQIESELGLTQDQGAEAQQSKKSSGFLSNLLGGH

[2] = target: T2, FAM134C fused to TurboID-V5 (FAM134C-TID-V5 and TID-V5-FAM134C) (UniProt Q9CQV4)
T2 sequence: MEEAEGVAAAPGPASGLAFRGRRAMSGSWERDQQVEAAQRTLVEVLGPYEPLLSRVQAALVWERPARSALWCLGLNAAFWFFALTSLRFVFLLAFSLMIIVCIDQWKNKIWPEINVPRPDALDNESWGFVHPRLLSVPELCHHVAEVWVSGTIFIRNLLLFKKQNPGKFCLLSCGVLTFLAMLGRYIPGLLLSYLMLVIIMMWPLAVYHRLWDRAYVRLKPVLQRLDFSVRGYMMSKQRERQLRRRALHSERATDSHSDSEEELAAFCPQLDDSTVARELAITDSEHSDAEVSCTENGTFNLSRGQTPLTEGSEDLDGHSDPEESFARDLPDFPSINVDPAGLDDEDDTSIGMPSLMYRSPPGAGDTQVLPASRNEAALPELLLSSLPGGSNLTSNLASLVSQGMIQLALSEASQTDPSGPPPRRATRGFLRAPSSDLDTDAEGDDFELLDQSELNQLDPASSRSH

[3] = target: T1, FAM134B fused to TurboID-V5 (FAM134B-TID-V5 and TID-V5-FAM134B) (mouse); remark: listed apart in the source
[4] = target: T2, FAM134C fused to TurboID-V5 (FAM134C-TID-V5 and TID-V5-FAM134C); remark: listed apart in the source

binding [1]	binding [2]	binding [3]	binding [4]	Substance
binds	binds	binds	binds	PRKAR1A, endogenous in PDAC cells (from UniProt Q9DBC7 1-381)
–	–	binds	–	STIM1, endogenous in PDAC cells (from UniProt P70302 23-685)
–	–	binds	–	ROCK2, endogenous in PDAC cells (from UniProt P70336 1-1388) (enzyme)

Read-outs that look alike come from different tables or passages of the source. Results are given in words; binding and its absence hold for the method and conditions named. Binding seen in cells or lysates may run through a third protein. Here binding means that the protein was enriched with, or labelled near, the bait; the list need not be complete. Tags and fused reporters may be left off the sequences shown.
